Assay results reported in article PMC6389991.
No constants are given. Whether binding was seen depends on the method and setting. Some results given as binding are weak or reduced against the parent protein; the word gives no strength.

Target: malate dehydrogenase (MDH), denatured (UniProt P00346)
Test: cross-linking; glutaraldehyde; ~60 µg proteins in 50 mM sodium phosphate pH 8, 100 mM NaCl with or without ATP and MgCl2 (2 mM each), 37 °C; SDS-PAGE; MDH denatured at 48 °C; both purified

binding: binds
B1: malate dehydrogenase (MDH), denatured (enzyme, UniProt P00346 25-338)
chain: AKVAVLGASGGIGQPLSLLLKNSPLVSRLTLYDIAHTPGVAADLSHIETRATVKGYLGPEQLPDCLKGCDVVVIPAGVPRKPGMTRDDLFNTNATIVATLTAACAQHCPDAMICIISNPVNSTIPITAEVFKKHGVYNPNKIFGVTTLDIVRANAFVAELKGLDPARVSVPVIGGHAGKTIIPLISQCTPKVDFPQDQLSTLTGRIQEAGTEVVKAKAGAGSATLSMAYAGARFVFSLVDAMNGKEGVVECSFVKSQETDCPYFSTPLLLGKKGIEKNLGIGKISPFEEKMIAEAIPELKASIKKGEEFVKNMK
